# Measurements published in patent US12161630B2, “Methods to control infection using new generation small molecule growth inhibitors” (priority 2017, dated 2024).
# Tested on: chicken cecal microbiota
# Test: Cecal microbiota 16S rRNA sequencing of SM-treated infected chickens
# Assay type: in vivo, broiler chickens
# Details: for impact on the cecal microbiota: infected broilers, compared to DMSO group
# Description: DNA extraction and sequencing: Microbiota diversity and abundance were investigated using the second cecum directly stored in −80° C. Genomic DNA was extracted using the PureLink Microbiome DNA Purification Kit (Life Technologies, Invitrogen Corp.), combined with RNAse treatment (10 units/hour). About 0.15 g to 0.20 g of cecum content was processed according to manufacturer's instructions. After quality control with electrophoresis and nanodrop, extracted DNA samples were subjected for 16S rRNA V4-V5 variable region sequencing. As a first step of targeted sequencing, amplicon libraries were prepared by using Phusion® High-Fidelity PCR Kit (New England Biolabs Inc, Ipswich, MA) in a 96-well plate. 25 μL of PCR reactions were prepared using 5 μl (5×) of PCR buffer, 4 μl (5 ng/μl) of DNA sample, and 2.5 μl (2 μM) primer, 0.5 μl (10 mM) dNTPs, 0.2 μl of enzyme, and nuclease free water to final volume. The barcoded primers targeted the V4-V5 variable region. The following PCR conditions were used for amplifications: initial denaturation was at 96° C. for 2 min, and 25 cycles of 96° C. for 30 sec, 55° C. for 30 sec, 72° C. for 30 sec, with final extension of 72° C. for 5 min. Following PCR amplification, PCR products were cleaned using AMPure XP PCR (Beckman Coulter Inc, Beverly MA). Sample concentrations were measured, and equal concentration of all samples were pooled into one flow cell and sequenced using Illumina MiSeq 300-base, paired-end kit at the Molecular and Cellular Imaging Center (Ohio Agricultural Research & Development Center, Wooster, OH).
# Bioinformatics analyses: After sequencing, a quality control of the raw reads was performed using FastQC (Babraham Bioinformatics, Cambridge, USA). Only nucleotides with a base sequence quality having a median quality score above 25 and lower quartile median quality score above 10 were used for further analysis. Trimmomatic was used for trimming and removal of NexteraPE-PE adapter sequences (15). Details concerning the parameters used are described in mcbl.readthedocs.io/en/latest/mcbl-tutorials-AD-clean.html. The resulting forward and reverse sequences were merged using Pandaseq (github.com/neufeld/pandaseq). During this step, any sequences with less than 0.7 threshold overlap was removed and primers used for amplification were trimmed. Controls containing only water and the extractions buffers used for the DNA extraction steps were analysis to confirm lack of contaminants. Then samples were processed using Quantitative Insights Into Microbial Ecology (QIIME) software version 1.9 (16). Operational Taxonomy Units (OTUs) were determined by clustering reads against Greengenes 16S reference dataset (2013-08 release) at a 97% identity using open picking reference OTU (pick_open_reference_otus.py) method using default parameters, except setting minimum OTU size to 10. Microbial diversity was studied after rarefication of the sequences based on the lowest number of sequences among the samples tested. Alpha and beta diversities were analyzed using the core analysis package (core_diveristy_analyses.py), which included the comparison of the phylogenetic diversity and richness, principal coordinate analysis, and relative abundance studies (summarize_taxa_through_plots.py). Identification of microbial difference between different diets was performed using linear discriminant analysis (LDA) in the Galaxy/Hutlab website (huttenhower.sph.harvard.edu/galaxy/).
# [1] = compared to DMSO control (P<0.01)
Compound,impact on the cecal microbiota,higher level of Enterobacteriaceae in ceca [1],increase in Clostridium in ceca [1],increase in Leuconostocaceae OTUs in ceca [1]
"CC1CCC(C(C)C)C(OC(=O)Cn2c[n+](CC(=O)OC3CC(C)CCC3C(C)C)c3ccccc32)C1.[Cl-] (stereo not shown) [SM1, 1,3-bis{2-[(2-isopropyl-5-methylcyclohexyl)oxy]-2-oxoethyl}-1H-3,1-benzimidazol-3-ium chloride]",more important alteration,–,–,–
"CCCCCCCCCCCCCCCC[n+]1ccn(CC#N)c1.[Cl-] [SM3, 1-(cyanomethyl)-3-hexadecyl-1H-imidazol-3-ium chloride]",–,2.5 fold,15 fold,10 fold
"CCCCCCCCCCCCCCCCn1c[n+](C)c2ccccc21.[Br-] [SM4, 1-hexadecyl-3-methyl-1H-3,1-benzimidazol-3-ium bromide]",minimal impact; also recorded: more important alteration,–,–,–
"CCOc1cc(/C=N/N=C(N)N)ccc1OCc1ccc(Cl)cc1 [SM5, N″-{4-[(4-chlorobenzyl)oxy]-3-ethoxybenzylidene}carbonohydrazonic diamide]",minimal impact,–,–,increase

# “Also recorded” adds a separate entry of the source.
